In patent EP4640708A1 (Chimagen Biosciences, Ltd, dated 2025) one finds binding data, which are given here for four molecules.

The chains behind the UniProt entries cited, without tags or fusion partners.
UniProt Q9NZD1: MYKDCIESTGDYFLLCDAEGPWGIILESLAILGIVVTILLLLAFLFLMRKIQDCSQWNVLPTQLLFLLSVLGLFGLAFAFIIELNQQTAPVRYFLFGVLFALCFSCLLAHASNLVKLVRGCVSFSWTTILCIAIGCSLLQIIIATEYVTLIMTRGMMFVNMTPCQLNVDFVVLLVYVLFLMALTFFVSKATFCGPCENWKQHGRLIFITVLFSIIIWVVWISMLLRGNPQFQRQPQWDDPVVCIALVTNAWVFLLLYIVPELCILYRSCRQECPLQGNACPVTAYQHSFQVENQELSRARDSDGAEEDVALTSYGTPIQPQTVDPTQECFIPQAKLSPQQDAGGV

B1: 22Mono5JO4 (antibody, human IgG1, V domains shown)
VH: QVQLVQSGAEVKKPGSSVKVSCRASGYPFTNYWMHWVRQAPGQGLEWIGEINPSNGRTNYNEKFKSRATLTLDKLTSTAYMELSSLTSEDTALYYCARGFAYWGQGTLVTVSS
VL: EIVLTQSPGTLSLSPGERATLSCSASSSVSFMHWYQQKPGQAPRRWIYDTTKLASGIPDRFSGSGSGTDYTLTISRLEPEDFAVYYCQQWNSHPLTFGQGTTVEIK
B2: 22Mono3L7F (antibody, human IgG1, V domains shown)
VH: EVTLKESGPVLVKPTETLTLTCTASGYPFTNYWMHWVRQPPGKALEWIGEINPSNGRTNYNEKFKSRATLSLDKSKSQAVLTMTNMDPVDTATYYCARGFAYWGQGTLVTVSS
VL: B1 VL with G9A, D59A, R76S, T102K, V103L
B3: 22Mono4DN4 (antibody, human IgG1, V domains shown)
VH: ELVQSGAEVKKPGSSVKVSCKASGYPFTNYWMHWVRQAPGQGLEWIGEINPSNGRTNYNEKFKSRATLTLDKSTSTAYMELSSLRSEDTAVYYCARGFAYWGQGTLVTVSS
VL: B1 VL with G9A, I57V, D59A, R76S, T102K
B4: 22Mono5UQY (antibody, human IgG1, V domains shown)
VH: QVQLQESGPGLVKPSETLSLTCTASGYPFTNYWMHWVRQPPGKGLEWIGEINPSNGRTNYNEKFKSRATLSLDKSKNQASLNLDSVSAADTAIYYCARGFAYWGKGSTVTVSS
VL: AIQLTQSPSSLSASVGDRVTITCSASSSVSFMHWYQQKPGKAPKRWIYDTTKLASGVPSRFSGSGSGTDYTFTISSLQPEDIATYYCQQWNSHPLTFGPGTKVDIK

Positions count from the first letter of the chain named. Results are given in words; binding and its absence hold for the method and conditions named. Some entries that bind do so weakly or less than the wild type.

The target of this assay is Human GPRC5D protein-Flag-His tag (51.8KD) ACRO Cat:GPD-H52D3 (human) (UniProt Q9NZD1). The experiment in a line: BLI (Octet R8), recombinant GPRC5D immobilized on a chip. (In general: In BLI a coated tip is dipped into the sample, and binding shifts an interference pattern.)
As for B1, the binding result was “binds”.

As for B2, the binding result is “binds”.

For B3, the binding entry is on record as “binds”.

As to B4, the binding result is listed as “binds”.
